Measurements from publication PMC8940927.
No constants are given. Whether binding was seen depends on the method and setting. In cells and extracts the contact can be indirect. These calls come from enrichment with a bait or labelling near it, and not all partners need be listed.

The chains behind the UniProt entries cited, without tags or fusion partners.
UniProt P43006: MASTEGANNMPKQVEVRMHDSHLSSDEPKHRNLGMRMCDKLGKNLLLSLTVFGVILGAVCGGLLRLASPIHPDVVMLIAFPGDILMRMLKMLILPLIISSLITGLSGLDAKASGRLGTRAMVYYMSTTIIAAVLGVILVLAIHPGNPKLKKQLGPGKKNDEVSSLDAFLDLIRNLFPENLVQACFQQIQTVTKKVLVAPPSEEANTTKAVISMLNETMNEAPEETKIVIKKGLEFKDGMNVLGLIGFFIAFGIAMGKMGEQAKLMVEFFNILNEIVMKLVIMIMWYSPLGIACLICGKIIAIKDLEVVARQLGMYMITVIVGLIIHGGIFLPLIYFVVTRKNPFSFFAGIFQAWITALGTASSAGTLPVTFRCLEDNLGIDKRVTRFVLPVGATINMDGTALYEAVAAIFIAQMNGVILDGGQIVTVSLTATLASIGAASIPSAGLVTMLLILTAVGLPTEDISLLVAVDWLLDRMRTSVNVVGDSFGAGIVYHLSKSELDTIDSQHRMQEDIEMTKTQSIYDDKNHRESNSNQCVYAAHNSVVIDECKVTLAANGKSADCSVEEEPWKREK

Target: GLT-1 (endogenous, mouse brain homogenate) (mouse (endogenous in mouse brain)) (UniProt P43006)
Assay: affinity purification with mass spectrometry; immunocomplexes from mouse brain homogenate precipitated by the GLT-1 antibody; a band of the Coomassie-stained gel used for mass spectrum analysis

binding: binds
Substance: PKCα (endogenous, mouse brain homogenate) (from UniProt P20444 1-672) (enzyme)
